{"source": "PubChem BioAssay AID686938 (Drosophila RNAi Screening Center, 2013)", "screen": "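Knock-downs reducing store-operated calcium influx in Drosophila cells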 (primary screen)", "system": "Drosophila S2R+ cells", "reagents": "long dsRNA against Drosophila genes, about 0.25 µg dsRNA per well, roughly 10,000 cells", "time to read-out": "5 days of knock-down before the calcium assay", "treatment": "thapsigargin (SERCA pump blocker) to empty calcium stores; entry signal taken 4 min after adding it", "detection": "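Duplicate raw fluo-4 intensities per well from a plate reader, at rest and four minutes after thapsigargin emptied calcium stores; entry-to-rest ratio filled for only some wells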", "reading the numbers": "calcium entry signal: higher = stronger calcium signal after store depletion; resting calcium signal: higher = higher resting calcium signal", "units": "calcium entry signal in fluorescence units; resting calcium signal in fluorescence units", "active means": "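Called when the plate z-score of the entry-to-rest ratio, mean of duplicates, falls below −3; wells with low overall dye signal (Fmax z below −2) or more than five off-targets excluded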", "meaning of the calls": "active = strongly reduced calcium entry; inactive = no strong reduction", "note": "The deposit covers about 23,000 reagents; below is an unselected part of those with a known target gene and a result. Of all reagents, 75 (0.33%) were called active. 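Raw plate signals without normalisation; calls rest on plate z-scores that were not deposited; ratio present for only 364 wells.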 A number with no mark means an inactive call. Not stated in the record: the dose of the treatment."}
{"gene knocked down": "Sid (GeneID 43390)", "dsRNA": "DRSC16588", "calcium entry signal, replicate 1": 4.35e7, "calcium entry signal, replicate 2": 5.79e7, "resting calcium signal, replicate 1": 2.24e7, "resting calcium signal, replicate 2": 2.49e7}
{"gene knocked down": "koi (GeneID 35594)", "dsRNA": "DRSC04980", "calcium entry signal, replicate 1": 2.70e7, "calcium entry signal, replicate 2": 2.78e7, "resting calcium signal, replicate 1": 1.21e7, "resting calcium signal, replicate 2": 1.19e7}
{"gene knocked down": "koi (GeneID 35594)", "dsRNA": "DRSC04991", "calcium entry signal, replicate 1": 2.80e7, "calcium entry signal, replicate 2": 3.18e7, "resting calcium signal, replicate 1": 1.19e7, "resting calcium signal, replicate 2": 1.41e7}
{"gene knocked down": "CG6118 (GeneID 41884)", "dsRNA": "DRSC15968", "calcium entry signal, replicate 1": 1.78e7, "calcium entry signal, replicate 2": 2.92e7, "resting calcium signal, replicate 1": 9.50e6, "resting calcium signal, replicate 2": 4.63e7}
{"gene knocked down": "CG6118 (GeneID 41884)", "dsRNA": "DRSC23197", "calcium entry signal, replicate 1": 4.84e7, "calcium entry signal, replicate 2": 2.88e7, "resting calcium signal, replicate 1": 2.27e7, "resting calcium signal, replicate 2": 1.33e7}

Part of the list above, set out differently:
{"gene knocked down":"Sid (GeneID 43390)","dsRNA":"DRSC16588","calcium entry signal, replicate 1":4.35e7,"calcium entry signal, replicate 2":5.79e7,"resting calcium signal, replicate 1":2.24e7,"resting calcium signal, replicate 2":2.49e7}
{"gene knocked down":"koi (GeneID 35594)","dsRNA":"DRSC04980","calcium entry signal, replicate 1":2.70e7,"calcium entry signal, replicate 2":2.78e7,"resting calcium signal, replicate 1":1.21e7,"resting calcium signal, replicate 2":1.19e7}

The results go on.
{"gene knocked down": "Dnai2 (GeneID 39318)", "dsRNA": "DRSC10575", "calcium entry signal, replicate 1": 2.56e7, "calcium entry signal, replicate 2": 3.48e7, "resting calcium signal, replicate 1": 1.31e7, "resting calcium signal, replicate 2": 1.55e7}
{"gene knocked down": "CG8206 (GeneID 32516)", "dsRNA": "DRSC20093", "calcium entry signal, replicate 1": 4.17e7, "calcium entry signal, replicate 2": 4.23e7, "resting calcium signal, replicate 1": 1.86e7, "resting calcium signal, replicate 2": 1.92e7}
{"gene knocked down": "CG34034 (GeneID 3885584)", "dsRNA": "DRSC13506", "calcium entry signal, replicate 1": 3.26e7, "calcium entry signal, replicate 2": 2.29e7, "resting calcium signal, replicate 1": 1.63e7, "resting calcium signal, replicate 2": 1.08e7}
{"gene knocked down": "CG14229 (GeneID 32980)", "dsRNA": "DRSC19585", "calcium entry signal, replicate 1": 4.39e7, "calcium entry signal, replicate 2": 4.24e7, "resting calcium signal, replicate 1": 2.09e7, "resting calcium signal, replicate 2": 1.66e7}
{"gene knocked down": "CG14229 (GeneID 32980)", "dsRNA": "DRSC23149", "calcium entry signal, replicate 1": 3.70e7, "calcium entry signal, replicate 2": 2.76e7, "resting calcium signal, replicate 1": 2.15e7, "resting calcium signal, replicate 2": 1.22e7}
{"gene knocked down": "CG32564 (GeneID 326222)", "dsRNA": "DRSC19933", "calcium entry signal, replicate 1": 3.84e7, "calcium entry signal, replicate 2": 3.45e7, "resting calcium signal, replicate 1": 2.11e7, "resting calcium signal, replicate 2": 1.55e7}
{"gene knocked down": "CG17930 (GeneID 41979)", "dsRNA": "DRSC15292", "calcium entry signal, replicate 1": 3.37e7, "calcium entry signal, replicate 2": 2.71e7, "resting calcium signal, replicate 1": 1.69e7, "resting calcium signal, replicate 2": 1.39e7}
{"gene knocked down": "Blos4 (GeneID 39219)", "dsRNA": "DRSC10151", "calcium entry signal, replicate 1": 2.63e7, "calcium entry signal, replicate 2": 3.33e7, "resting calcium signal, replicate 1": 1.36e7, "resting calcium signal, replicate 2": 1.49e7}
{"gene knocked down": "Ugt37D1 (GeneID 53511)", "dsRNA": "DRSC02645", "calcium entry signal, replicate 1": 3.90e7, "calcium entry signal, replicate 2": 2.20e7, "resting calcium signal, replicate 1": 1.82e7, "resting calcium signal, replicate 2": 1.11e7}
